Results are given in words; binding and its absence hold for the method and conditions named. In cells and extracts the contact can be indirect. Some binding calls cover weakened binding; strength is not graded here. Each block holds one molecule with its values, some of them ahead of it.
Key:
[1] = molecular target: T1, FOXM1 (forkhead box transcription M1) (human (endogenous in A549 and HCC827)) (UniProt Q08050); assay: co-IP; lysates of A549 and HCC827 cells (RIPA); immunoprecipitation with anti-FOXM1, anti-β-catenin or anti-IgG for 1 h at 37 °C, protein A-agarose overnight; bound proteins tested by western blot
T1 sequence: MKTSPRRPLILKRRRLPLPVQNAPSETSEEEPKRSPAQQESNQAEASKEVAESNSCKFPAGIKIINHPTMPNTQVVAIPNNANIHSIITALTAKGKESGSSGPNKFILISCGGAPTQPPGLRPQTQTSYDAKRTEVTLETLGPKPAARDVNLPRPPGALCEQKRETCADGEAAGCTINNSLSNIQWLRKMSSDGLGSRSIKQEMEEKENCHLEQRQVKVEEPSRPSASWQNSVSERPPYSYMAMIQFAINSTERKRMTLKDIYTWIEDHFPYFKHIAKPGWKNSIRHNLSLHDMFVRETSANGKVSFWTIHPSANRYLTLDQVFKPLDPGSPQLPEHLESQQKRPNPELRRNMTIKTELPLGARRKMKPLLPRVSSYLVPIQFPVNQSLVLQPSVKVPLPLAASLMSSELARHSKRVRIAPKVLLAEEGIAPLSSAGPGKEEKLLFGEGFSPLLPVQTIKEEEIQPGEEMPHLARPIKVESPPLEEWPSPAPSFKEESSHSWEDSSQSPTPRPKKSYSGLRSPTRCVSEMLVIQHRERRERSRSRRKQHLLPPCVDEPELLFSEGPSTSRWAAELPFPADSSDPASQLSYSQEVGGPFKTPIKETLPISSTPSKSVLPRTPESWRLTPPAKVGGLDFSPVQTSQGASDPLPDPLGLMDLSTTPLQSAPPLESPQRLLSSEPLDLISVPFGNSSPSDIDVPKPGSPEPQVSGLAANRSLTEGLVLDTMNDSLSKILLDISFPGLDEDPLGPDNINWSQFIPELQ

Chains of the proteins cited; added tags and fusions are not shown.
UniProt P35222: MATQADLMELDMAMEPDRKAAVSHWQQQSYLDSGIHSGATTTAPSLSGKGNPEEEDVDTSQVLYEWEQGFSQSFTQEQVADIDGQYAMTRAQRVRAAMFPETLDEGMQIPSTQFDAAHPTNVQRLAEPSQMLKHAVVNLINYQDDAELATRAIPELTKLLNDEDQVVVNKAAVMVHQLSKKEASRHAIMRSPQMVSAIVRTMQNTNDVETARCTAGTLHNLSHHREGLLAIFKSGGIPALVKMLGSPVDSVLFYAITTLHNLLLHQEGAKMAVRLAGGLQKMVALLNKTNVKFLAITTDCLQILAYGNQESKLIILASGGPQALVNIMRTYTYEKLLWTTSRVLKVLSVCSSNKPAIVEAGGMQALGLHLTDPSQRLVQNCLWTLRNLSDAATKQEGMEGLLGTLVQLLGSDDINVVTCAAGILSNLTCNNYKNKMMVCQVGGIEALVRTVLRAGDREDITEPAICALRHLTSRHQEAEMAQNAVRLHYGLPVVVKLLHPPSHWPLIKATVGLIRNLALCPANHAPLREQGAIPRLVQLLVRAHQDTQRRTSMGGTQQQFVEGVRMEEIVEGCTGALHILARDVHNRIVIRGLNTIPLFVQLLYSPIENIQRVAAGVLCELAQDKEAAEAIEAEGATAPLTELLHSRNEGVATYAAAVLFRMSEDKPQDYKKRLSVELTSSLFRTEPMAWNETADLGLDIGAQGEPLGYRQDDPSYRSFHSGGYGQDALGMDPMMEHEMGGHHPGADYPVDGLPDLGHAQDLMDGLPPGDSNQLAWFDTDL

[2] = molecular target: β-catenin (human (endogenous in A549 and HCC827)) (UniProt P35222); assay: as above

binding [1]: binds
Molecule: β-catenin (from UniProt P35222 1-781)

binding [2]: binds
B1: FOXM1 (forkhead box transcription M1) (protein, UniProt Q08050 1-763)
chain: T1 sequence
